From PMC1090571
No constants are given. Whether binding was seen depends on the method and setting. Some results given as binding are weak or reduced against the parent protein; the word gives no strength.

By UniProt entry, the sequences of proteins in these tests, tags left out. Residues count along the entry.
UniProt P14210, residues 32-728: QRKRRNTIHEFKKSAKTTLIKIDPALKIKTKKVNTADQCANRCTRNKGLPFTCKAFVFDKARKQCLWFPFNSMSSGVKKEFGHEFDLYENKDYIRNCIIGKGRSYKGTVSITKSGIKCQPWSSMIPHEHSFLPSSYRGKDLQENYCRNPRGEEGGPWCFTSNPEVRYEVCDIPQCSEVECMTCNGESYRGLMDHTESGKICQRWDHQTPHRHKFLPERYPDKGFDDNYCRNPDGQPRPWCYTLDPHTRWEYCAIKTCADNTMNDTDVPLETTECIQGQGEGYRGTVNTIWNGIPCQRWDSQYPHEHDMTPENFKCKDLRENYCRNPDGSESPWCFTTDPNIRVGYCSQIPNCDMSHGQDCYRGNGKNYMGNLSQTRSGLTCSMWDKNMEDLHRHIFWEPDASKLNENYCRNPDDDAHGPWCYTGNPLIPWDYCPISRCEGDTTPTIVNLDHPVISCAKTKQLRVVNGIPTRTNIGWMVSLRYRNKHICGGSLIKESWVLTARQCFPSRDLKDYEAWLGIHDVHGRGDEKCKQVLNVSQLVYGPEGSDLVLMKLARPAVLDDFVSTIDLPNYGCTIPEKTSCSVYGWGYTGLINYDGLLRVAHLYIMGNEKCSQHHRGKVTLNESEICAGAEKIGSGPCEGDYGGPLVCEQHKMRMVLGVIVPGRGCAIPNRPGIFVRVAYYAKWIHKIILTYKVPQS

Experiments:
[1] = target: recombinant human HGF receptor (c-Met)/Fc chimera (human) (UniProt P08581); experiment: SPR; c-Met/Fc chimera amine-coupled to a CM5 chip (Biacore 2000 / Biacore X), reconstituted faecal samples with protease inhibitor injected, 25°C; reference flow cell without ligand subtracted; only the target purified
[2] = target: recombinant human HGF receptor (c-Met)/Fc chimera (human) (UniProt P08581); experiment: affinity chromatography with SDS-PAGE; Hi-trap column immobilised with recombinant human c-Met/Fc chimera; reconstituted faeces applied; purified material run on SDS-PAGE; only the target purified
[3] = target: recombinant human HGF receptor (c-Met)/Fc chimera (human) (UniProt P08581); experiment: SPR; recombinant HGF examined on immobilised c-met receptor; data not shown; both purified

Row | binding [1] | binding [2] | binding [3] | Substance
1 | binds | binds |  | Hepatocyte growth factor (HGF) in reconstituted faecal samples of patients (from UniProt P14210 32-728) (ligand)
2 |  |  | binds | recombinant HGF (from UniProt P14210 32-728) (ligand)
